In the supplement of paper PMC6411743:
± gives the standard deviation of the averaged measurements. Some of the results follow.

Chains of the proteins cited; added tags and fusions are not shown. Lines headed by an entry give the natural chain unless they say otherwise; changes in a name come on top.
UniProt Q9UJY5: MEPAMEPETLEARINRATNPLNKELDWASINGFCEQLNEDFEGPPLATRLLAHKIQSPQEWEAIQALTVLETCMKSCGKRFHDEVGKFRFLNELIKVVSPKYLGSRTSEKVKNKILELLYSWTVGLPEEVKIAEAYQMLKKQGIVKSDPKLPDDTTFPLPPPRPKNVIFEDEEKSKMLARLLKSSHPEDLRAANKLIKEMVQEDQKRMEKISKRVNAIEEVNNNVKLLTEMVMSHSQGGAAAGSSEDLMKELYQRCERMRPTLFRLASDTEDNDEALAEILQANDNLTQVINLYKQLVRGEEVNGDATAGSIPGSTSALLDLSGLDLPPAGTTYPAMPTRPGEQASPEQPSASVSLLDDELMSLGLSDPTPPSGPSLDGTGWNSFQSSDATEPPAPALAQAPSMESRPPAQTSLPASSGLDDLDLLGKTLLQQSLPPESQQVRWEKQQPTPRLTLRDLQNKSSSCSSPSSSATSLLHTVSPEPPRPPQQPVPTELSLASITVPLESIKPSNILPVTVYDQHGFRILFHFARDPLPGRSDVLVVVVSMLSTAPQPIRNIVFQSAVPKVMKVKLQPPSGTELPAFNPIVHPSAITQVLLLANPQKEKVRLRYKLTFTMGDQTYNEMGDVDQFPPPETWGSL
UniProt Q9P2R3: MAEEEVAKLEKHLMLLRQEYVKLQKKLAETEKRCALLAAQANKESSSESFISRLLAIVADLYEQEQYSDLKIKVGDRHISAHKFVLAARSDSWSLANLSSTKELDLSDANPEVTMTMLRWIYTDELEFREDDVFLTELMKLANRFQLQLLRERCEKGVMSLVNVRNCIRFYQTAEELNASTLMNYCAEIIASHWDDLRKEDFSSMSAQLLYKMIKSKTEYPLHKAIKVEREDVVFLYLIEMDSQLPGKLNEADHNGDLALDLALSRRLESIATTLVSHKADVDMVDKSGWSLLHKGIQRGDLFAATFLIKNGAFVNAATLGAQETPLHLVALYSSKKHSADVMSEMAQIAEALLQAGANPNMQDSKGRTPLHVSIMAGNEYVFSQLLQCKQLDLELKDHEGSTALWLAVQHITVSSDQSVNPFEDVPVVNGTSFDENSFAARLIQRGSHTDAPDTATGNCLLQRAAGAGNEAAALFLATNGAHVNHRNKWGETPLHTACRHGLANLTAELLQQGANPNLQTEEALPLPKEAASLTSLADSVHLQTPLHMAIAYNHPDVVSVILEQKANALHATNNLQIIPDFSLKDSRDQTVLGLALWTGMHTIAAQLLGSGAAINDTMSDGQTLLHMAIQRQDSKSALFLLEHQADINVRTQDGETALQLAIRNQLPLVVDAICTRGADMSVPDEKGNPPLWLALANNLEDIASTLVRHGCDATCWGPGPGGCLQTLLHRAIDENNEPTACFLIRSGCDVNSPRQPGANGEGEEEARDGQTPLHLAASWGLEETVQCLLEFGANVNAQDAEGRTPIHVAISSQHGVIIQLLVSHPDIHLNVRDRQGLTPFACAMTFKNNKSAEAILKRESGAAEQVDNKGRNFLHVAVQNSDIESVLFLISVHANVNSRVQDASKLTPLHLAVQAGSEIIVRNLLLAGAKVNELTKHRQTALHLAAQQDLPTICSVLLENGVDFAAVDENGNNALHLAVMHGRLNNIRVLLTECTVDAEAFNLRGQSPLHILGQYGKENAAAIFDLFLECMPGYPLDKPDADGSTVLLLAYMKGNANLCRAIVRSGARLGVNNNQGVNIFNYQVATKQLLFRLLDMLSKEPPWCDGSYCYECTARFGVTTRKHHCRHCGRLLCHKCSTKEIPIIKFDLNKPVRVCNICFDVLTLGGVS
UniProt Q9UBN7: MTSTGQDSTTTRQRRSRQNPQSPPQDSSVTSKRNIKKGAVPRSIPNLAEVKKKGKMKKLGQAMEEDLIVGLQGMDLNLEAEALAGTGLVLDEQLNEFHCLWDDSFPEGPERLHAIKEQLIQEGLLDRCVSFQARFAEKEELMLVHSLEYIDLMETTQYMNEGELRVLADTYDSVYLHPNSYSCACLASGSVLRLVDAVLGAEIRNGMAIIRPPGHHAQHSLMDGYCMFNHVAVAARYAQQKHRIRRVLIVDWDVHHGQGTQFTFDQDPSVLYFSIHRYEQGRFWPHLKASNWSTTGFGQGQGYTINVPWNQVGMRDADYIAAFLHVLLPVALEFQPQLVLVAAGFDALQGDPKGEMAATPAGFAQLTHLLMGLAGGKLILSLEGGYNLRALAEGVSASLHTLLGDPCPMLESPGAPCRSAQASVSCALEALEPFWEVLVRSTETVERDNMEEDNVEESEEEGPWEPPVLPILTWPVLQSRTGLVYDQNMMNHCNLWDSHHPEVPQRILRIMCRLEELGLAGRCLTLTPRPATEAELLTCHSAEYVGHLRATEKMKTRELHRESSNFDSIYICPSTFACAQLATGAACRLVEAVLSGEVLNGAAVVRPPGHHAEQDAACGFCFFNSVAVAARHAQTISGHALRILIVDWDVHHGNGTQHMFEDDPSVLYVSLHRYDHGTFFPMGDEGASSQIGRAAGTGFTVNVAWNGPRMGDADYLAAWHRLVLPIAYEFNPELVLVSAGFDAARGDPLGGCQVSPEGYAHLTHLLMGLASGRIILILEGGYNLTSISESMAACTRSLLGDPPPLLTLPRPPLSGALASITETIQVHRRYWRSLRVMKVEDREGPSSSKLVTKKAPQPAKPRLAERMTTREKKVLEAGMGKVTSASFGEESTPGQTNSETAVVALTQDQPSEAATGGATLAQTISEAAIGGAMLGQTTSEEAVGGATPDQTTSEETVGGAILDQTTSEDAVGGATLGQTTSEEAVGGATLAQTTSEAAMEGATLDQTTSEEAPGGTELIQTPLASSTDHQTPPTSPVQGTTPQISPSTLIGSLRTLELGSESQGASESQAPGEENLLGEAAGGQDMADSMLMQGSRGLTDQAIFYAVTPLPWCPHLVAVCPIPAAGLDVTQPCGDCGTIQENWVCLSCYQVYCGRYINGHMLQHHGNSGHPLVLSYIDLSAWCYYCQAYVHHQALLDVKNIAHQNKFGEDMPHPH
UniProt Q9NX24: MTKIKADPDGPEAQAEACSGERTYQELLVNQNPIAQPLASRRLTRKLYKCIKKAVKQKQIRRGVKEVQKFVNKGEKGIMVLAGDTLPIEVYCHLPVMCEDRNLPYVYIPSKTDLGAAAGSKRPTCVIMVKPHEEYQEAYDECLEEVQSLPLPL
UniProt Q9NW64: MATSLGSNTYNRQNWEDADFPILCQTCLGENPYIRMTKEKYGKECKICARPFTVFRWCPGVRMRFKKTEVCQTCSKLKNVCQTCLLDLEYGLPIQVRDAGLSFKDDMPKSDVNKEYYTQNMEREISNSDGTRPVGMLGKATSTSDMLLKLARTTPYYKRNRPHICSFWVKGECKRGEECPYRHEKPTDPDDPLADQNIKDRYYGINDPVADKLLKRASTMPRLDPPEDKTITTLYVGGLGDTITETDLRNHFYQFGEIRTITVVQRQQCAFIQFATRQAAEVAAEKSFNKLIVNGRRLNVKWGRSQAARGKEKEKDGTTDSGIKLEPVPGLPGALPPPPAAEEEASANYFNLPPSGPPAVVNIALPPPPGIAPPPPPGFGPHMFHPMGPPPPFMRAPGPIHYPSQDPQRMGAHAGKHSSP
UniProt Q9UJW0, whole entry: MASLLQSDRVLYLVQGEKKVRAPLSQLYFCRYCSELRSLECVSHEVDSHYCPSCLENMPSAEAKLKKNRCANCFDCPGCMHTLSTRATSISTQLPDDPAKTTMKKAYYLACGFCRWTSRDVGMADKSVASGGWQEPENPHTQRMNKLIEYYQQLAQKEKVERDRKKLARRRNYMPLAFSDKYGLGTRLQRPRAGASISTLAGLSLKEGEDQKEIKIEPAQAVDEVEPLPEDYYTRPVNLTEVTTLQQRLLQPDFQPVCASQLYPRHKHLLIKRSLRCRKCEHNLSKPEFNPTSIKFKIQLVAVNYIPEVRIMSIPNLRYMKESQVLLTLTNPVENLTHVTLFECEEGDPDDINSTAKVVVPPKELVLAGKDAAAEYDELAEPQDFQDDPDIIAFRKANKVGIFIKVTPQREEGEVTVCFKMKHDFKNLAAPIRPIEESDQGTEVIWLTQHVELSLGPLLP
UniProt Q9UJ83: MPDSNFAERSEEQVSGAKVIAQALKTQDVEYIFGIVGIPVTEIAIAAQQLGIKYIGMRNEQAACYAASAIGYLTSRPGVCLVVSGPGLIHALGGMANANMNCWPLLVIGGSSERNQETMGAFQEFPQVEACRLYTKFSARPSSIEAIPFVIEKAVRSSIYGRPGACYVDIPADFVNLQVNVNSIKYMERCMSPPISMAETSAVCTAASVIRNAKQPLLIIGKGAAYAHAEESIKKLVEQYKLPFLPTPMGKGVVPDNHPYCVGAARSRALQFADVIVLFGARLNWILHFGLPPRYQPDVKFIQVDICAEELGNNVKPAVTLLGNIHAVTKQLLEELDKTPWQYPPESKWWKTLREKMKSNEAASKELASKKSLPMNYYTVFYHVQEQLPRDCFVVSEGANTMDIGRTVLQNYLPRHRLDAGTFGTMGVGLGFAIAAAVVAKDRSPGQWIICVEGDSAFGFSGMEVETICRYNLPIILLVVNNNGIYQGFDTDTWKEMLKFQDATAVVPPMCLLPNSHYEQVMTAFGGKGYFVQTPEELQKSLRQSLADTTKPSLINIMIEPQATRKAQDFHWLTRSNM
UniProt Q9ULC4: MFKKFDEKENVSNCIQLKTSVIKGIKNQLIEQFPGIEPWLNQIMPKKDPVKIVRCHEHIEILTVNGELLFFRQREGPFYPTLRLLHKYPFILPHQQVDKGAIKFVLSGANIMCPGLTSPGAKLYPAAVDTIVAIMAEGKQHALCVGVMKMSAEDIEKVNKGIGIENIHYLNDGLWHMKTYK
UniProt Q9ULF5: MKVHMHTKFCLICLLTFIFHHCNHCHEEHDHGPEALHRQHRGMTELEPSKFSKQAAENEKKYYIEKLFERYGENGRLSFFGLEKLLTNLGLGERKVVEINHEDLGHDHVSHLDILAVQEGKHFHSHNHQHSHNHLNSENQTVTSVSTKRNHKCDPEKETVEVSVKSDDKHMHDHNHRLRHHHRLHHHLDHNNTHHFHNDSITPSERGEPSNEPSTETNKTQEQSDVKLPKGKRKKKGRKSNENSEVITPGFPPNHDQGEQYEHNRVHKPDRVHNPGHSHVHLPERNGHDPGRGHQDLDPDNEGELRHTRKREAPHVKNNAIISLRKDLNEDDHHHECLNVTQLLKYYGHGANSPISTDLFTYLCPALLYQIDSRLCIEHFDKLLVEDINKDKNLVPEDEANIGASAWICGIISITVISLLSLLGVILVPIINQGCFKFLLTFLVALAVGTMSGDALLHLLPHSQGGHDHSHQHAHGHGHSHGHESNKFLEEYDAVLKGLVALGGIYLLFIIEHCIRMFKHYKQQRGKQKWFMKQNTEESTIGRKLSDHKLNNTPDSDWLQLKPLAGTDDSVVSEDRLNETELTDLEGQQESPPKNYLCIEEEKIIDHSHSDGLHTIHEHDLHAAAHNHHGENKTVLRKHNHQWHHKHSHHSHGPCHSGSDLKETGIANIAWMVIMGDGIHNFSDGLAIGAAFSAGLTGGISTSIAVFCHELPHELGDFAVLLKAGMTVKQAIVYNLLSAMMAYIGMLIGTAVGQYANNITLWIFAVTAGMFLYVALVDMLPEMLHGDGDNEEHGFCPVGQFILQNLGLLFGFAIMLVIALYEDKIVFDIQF
UniProt Q9NX46: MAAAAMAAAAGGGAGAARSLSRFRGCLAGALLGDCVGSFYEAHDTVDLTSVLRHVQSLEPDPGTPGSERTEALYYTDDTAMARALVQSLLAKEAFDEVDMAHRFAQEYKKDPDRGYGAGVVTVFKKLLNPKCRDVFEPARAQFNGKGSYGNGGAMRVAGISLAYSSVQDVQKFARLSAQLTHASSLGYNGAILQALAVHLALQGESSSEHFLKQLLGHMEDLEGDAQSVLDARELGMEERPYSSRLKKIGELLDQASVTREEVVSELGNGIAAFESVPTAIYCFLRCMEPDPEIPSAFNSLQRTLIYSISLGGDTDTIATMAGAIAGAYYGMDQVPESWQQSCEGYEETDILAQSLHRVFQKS

Compound: Nc1nc2c(ncn2[C@@H]2O[C@H](COP(=O)(O)OP(=O)(O)OP(=O)(O)O)[C@@H](O)[C@H]2O)c(=O)[nH]1 [guanosine triphosphate]
Experiment: NP40-soluble protein abundance relative to vehicle (solubility fold change) (ratio); higher = more soluble protein in presence of GTP
Method in brief: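 Jurkat crude lysate prepared with a Dounce homogeniser was treated at eight concentrations spanning 0.1 to 10 mM, 10 min at room temperature then 3 min at 37 °C. Solubilisation with 0.8% NP40 and benzonase and ultracentrifugation preceded TMT labelling of the supernatant for LC-MS/MS. Fold change against the detergent-processed vehicle was determined per replicate from vsn-normalised intensities, across three independent experiments.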

Row | Target | NP40-soluble protein abundance (concentration: 0.1mM) | NP40-soluble protein abundance (concentration: 0.5mM) | NP40-soluble protein abundance (concentration: 1mM) | NP40-soluble protein abundance (concentration: 2mM) | NP40-soluble protein abundance (concentration: 4mM) | NP40-soluble protein abundance (concentration: 6mM) | NP40-soluble protein abundance (concentration: 8mM) | NP40-soluble protein abundance (concentration: 10mM)
1 | UniProt Q9UJY5 and related entries | 0.918 ± 0.065 | 0.944 ± 0.1 | 0.955 ± 0.071 | 0.921 ± 0.12 | 0.893 ± 0.086 | 0.907 ± 0.1 | 0.929 ± 0.076 | 0.912 ± 0.09
2 | UniProt Q9P2R3 and related entries | 1.08 ± 0.019 | 1.03 ± 0.023 | 0.958 ± 0.062 | 0.974 ± 0.062 | 0.97 ± 0.059 | 0.954 ± 0.071 | 0.93 ± 0.046 | 0.904 ± 0.084
3 | UniProt Q9UKJ3 and related entries | 1.02 ± 0.025 | 1.11 ± 0.058 | 1.19 ± 0.045 | 1.03 ± 0.075 | 0.978 ± 0.066 | 0.945 ± 0.073 | 1.03 ± 0.12 | 0.924 ± 0.1
4 | HDAC6 (UniProt Q9UBN7) | 0.988 ± 0.03 | 0.978 ± 0.047 | 0.941 ± 0.078 | 0.964 ± 0.08 | 0.905 ± 0.074 | 0.953 ± 0.096 | 0.941 ± 0.039 | 0.899 ± 0.065
5 | NHP2 (UniProt Q9NX24) | 0.959 ± 0.056 | 0.942 ± 0.054 | 1.02 ± 0.069 | 1.09 ± 0.067 | 1.2 ± 0.096 | 1.39 ± 0.16 | 1.45 ± 0.16 | 1.75 ± 0.35
6 | LYAR (UniProt Q9NX58) | 1.05 ± 0.037 | 1.05 ± 0.1 | 1.08 ± 0.1 | 1.16 ± 0.077 | 1.14 ± 0.053 | 1.17 ± 0.068 | 1.17 ± 0.14 | 1.27 ± 0.14
7 | UniProt Q9NW64 | 1.016 ± 0.0065 | 0.998 ± 0.027 | 0.962 ± 0.06 | 0.942 ± 0.07 | 0.962 ± 0.066 | 0.967 ± 0.064 | 1 ± 0.049 | 0.991 ± 0.1
8 | UniProt Q9UJW0 and related entries | 1.08 ± 0.011 | 1.05 ± 0.049 | 1.06 ± 0.073 | 1.1 ± 0.12 | 1.14 ± 0.15 | 1.11 ± 0.16 | 1.14 ± 0.16 | 1.06 ± 0.14
9 | SEC63 (UniProt Q9UGP8) | 0.964 ± 0.023 | 0.977 ± 0.022 | 0.935 ± 0.045 | 0.926 ± 0.036 | 0.913 ± 0.073 | 0.927 ± 0.026 | 0.93 ± 0.022 | 0.897 ± 0.03
10 | UniProt Q9UK61 and related entries | 1.06 ± 0.04 | 1.03 ± 0.022 | 1.045 ± 0.01 | 1.06 ± 0.032 | 1.08 ± 0.083 | 1.1 ± 0.067 | 1.13 ± 0.1 | 1.12 ± 0.09
11 | UniProt Q9UJ83 and related entries | 1.067 ± 0.0066 | 1.03 ± 0.11 | 0.98 ± 0.05 | 1.01 ± 0.11 | 0.987 ± 0.04 | 0.958 ± 0.08 | 0.926 ± 0.021 | 0.9129 ± 0.0074
12 | UniProt Q9ULC4 and related entries | 0.995 ± 0.034 | 0.986 ± 0.018 | 0.904 ± 0.04 | 0.901 ± 0.05 | 0.891 ± 0.064 | 0.865 ± 0.032 | 0.858 ± 0.076 | 0.854 ± 0.063
13 | SLC39A10 (UniProt Q9ULF5) | 0.974 ± 0.027 | 0.957 ± 0.068 | 0.963 ± 0.017 | 1 ± 0.062 | 0.967 ± 0.088 | 0.957 ± 0.075 | 0.995 ± 0.068 | 0.994 ± 0.024
14 | ADPRHL2 (UniProt Q9NX46) | 0.991 ± 0.021 | 0.955 ± 0.017 | 0.95 ± 0.019 | 0.931 ± 0.056 | 0.934 ± 0.06 | 0.907 ± 0.039 | 0.889 ± 0.079 | 0.931 ± 0.034
15 | APPL1 (UniProt Q9UKG1) | 1 ± 0.031 | 1.01 ± 0.035 | 0.955 ± 0.019 | 0.963 ± 0.0096 | 0.959 ± 0.025 | 0.929 ± 0.02 | 0.95 ± 0.022 | 0.899 ± 0.046

Whole records from above. Order of values: NP40-soluble protein abundance (concentration: 0.1mM) | NP40-soluble protein abundance (concentration: 0.5mM) | NP40-soluble protein abundance (concentration: 1mM) | NP40-soluble protein abundance (concentration: 2mM) | NP40-soluble protein abundance (concentration: 4mM) | NP40-soluble protein abundance (concentration: 6mM) | NP40-soluble protein abundance (concentration: 8mM) | NP40-soluble protein abundance (concentration: 10mM)
UniProt Q9UJY5 and related entries as listed: 0.918 ± 0.065 | 0.944 ± 0.1 | 0.955 ± 0.071 | 0.921 ± 0.12 | 0.893 ± 0.086 | 0.907 ± 0.1 | 0.929 ± 0.076 | 0.912 ± 0.09
SEC63 (UniProt Q9UGP8) as listed: 0.964 ± 0.023 | 0.977 ± 0.022 | 0.935 ± 0.045 | 0.926 ± 0.036 | 0.913 ± 0.073 | 0.927 ± 0.026 | 0.93 ± 0.022 | 0.897 ± 0.03
